Experimental data published in US20210085756A1, “SUPERACTIVE MUTANT THYMIDINE KINASE FOR USE IN CANCER THERAPY” (MEDIZINISCHE UNIVERSITÄT WIEN, priority 2017, published 2021).

System: HeLa cervix carcinoma cells
Test: growth curves of superTk1 stable transfectant HeLa clone 117 with dTh, 5-FU or AraC +/- doxycyclin

Row | Structure (SMILES) | amount still giving significant inhibition relative to amount used in the literature (5 μM (0.65 μg/ml) versus 55.44 μg/ml) | fraction of standard dTh concentration sufficient for S-phase block (superTk1 expressing HeLa, 0.1 mM dTh)
1 | O=c1[nH]cc(F)c(=O)[nH]1 [5-FU, 5-fluorouracil] | 1/85 | –
2 | Cc1cn([C@H]2C[C@H](O)[C@@H](CO)O2)c(=O)[nH]c1=O [dTh, deoxythymidine] | – | 1/50
